From the supplement of paper PMC8728848
Some of the results follow.

Experiments:
Assay in all cases: glycan array binding signal (z-score within array); higher = stronger binding
Settings in all cases: glycan notation: IUPAC condensed, linker removed
[1] = target: Neu5Ac(a2-3)Gal(b1-3)GlcNAc(b1-2)Man
Summary of the method: (§1)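 Arrays were curated from the Consortium for Functional Glycomics database, 3228 in total, and kept only where the protein sequence was available. Binding is expressed as a within-array Z-score. This score was averaged across arrays of the same protein sequence at different concentrations or buffers and across linkers, and negative values can be read as non-binding.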

[2] = target: Neu5Ac(a2-3)Gal(b1-3)GlcNAc(b1-2)Man(a1-3)[GlcNAc(b1-4)][Neu5Ac(a2-3)Gal(b1-3)GlcNAc(b1-2)Man(a1-6)]Man(b1-4)GlcNAc(b1-4)GlcNAc
Summary of the method: as §1

[3] = target: Neu5Ac(a2-3)Gal(b1-3)GlcNAc(b1-2)Man(a1-3)[Neu5Ac(a2-3)Gal(b1-3)GlcNAc(b1-2)Man(a1-6)]Man(b1-4)GlcNAc(b1-4)GlcNAc
Summary of the method: as §1

[4] = target: Neu5Ac(a2-3)Gal(b1-3)GlcNAc(b1-2)[Neu5Ac(a2-3)Gal(b1-3)GlcNAc(b1-4)]Man(a1-6)[Neu5Ac(a2-3)Gal(b1-3)GlcNAc(b1-2)Man(a1-3)]Man(b1-4)GlcNAc(b1-4)GlcNAc
Summary of the method: as §1

[5] = target: Neu5Ac(a2-3)Gal(b1-3)GlcNAc(b1-3)Gal(b1-3)GlcNAc
Summary of the method: as §1

[6] = target: Neu5Ac(a2-3)Gal(b1-3)GlcNAc(b1-3)Gal(b1-4)GlcNAc
Summary of the method: as §1

[7] = target: Neu5Ac(a2-3)Gal(b1-3)GlcNAc(b1-3)GalNAc
Summary of the method: as §1

[8] = target: Neu5Ac(a2-3)Gal(b1-3)GlcNAc(b1-6)GalNAc
Summary of the method: as §1

[9] = target: Neu5Ac(a2-3)Gal(b1-3)GlcNAc6S
Summary of the method: as §1

[10] = target: Neu5Ac(a2-3)Gal(b1-3)[Fuc(a1-4)]GlcNAc
Summary of the method: as §1

[11] = target: Neu5Ac(a2-3)Gal(b1-3)[Fuc(a1-4)]GlcNAc(b1-3)Gal(b1-3)[Fuc(a1-4)]GlcNAc
Summary of the method: as §1

[12] = target: Neu5Ac(a2-3)Gal(b1-3)[Fuc(a1-4)]GlcNAc(b1-3)Gal(b1-4)[Fuc(a1-3)]GlcNAc
Summary of the method: as §1

[13] = target: Neu5Ac(a2-3)Gal(b1-3)[GlcNAc(b1-6)]GalNAc
Summary of the method: as §1

[14] = target: Neu5Ac(a2-3)Gal(b1-3)[Neu5Ac(a2-6)]GalNAc
Summary of the method: as §1

[15] = target: Neu5Ac(a2-3)Gal(b1-3)[Neu5Ac(a2-6)]GlcNAc(b1-3)[Fuc(a1-3)[Gal(b1-4)]GlcNAc(b1-6)]Gal(b1-4)Glc
Summary of the method: as §1

[16] = target: Neu5Ac(a2-3)Gal(b1-3)]Neu5Ac(a2-3)Gal(b1-4)]GlcNAc
Summary of the method: as §1

[17] = target: Neu5Ac(a2-3)Gal(b1-4)Glc
Summary of the method: as §1

[18] = target: Neu5Ac(a2-3)Gal(b1-4)GlcNAc
Summary of the method: as §1

[19] = target: Neu5Ac(a2-3)Gal(b1-4)GlcNAc(b1-2)Man
Summary of the method: as §1

[20] = target: Neu5Ac(a2-3)Gal(b1-4)GlcNAc(b1-2)Man(a1-3)[GlcNAc(b1-4)][Neu5Ac(a2-3)Gal(b1-4)GlcNAc(b1-2)Man(a1-6)]Man(b1-4)GlcNAc(b1-4)GlcNAc
Summary of the method: as §1

[21] = target: Neu5Ac(a2-3)Gal(b1-4)GlcNAc(b1-2)Man(a1-3)[Neu5Ac(a2-3)Gal(b1-4)GlcNAc(b1-2)Man(a1-6)]Man(b1-4)GlcNAc(b1-4)GlcNAc
Summary of the method: as §1

[22] = target: Neu5Ac(a2-3)Gal(b1-4)GlcNAc(b1-2)Man(a1-3)[Neu5Ac(a2-3)Gal(b1-4)GlcNAc(b1-2)Man(a1-6)]Man(b1-4)GlcNAc(b1-4)[Fuc(a1-6)]GlcNAc
Summary of the method: as §1

[23] = target: Neu5Ac(a2-3)Gal(b1-4)GlcNAc(b1-2)Man(a1-3)[Neu5Ac(a2-6)Gal(b1-4)GlcNAc(b1-2)Man(a1-6)]Man(b1-4)GlcNAc(b1-4)GlcNAc
Summary of the method: as §1

[24] = target: Neu5Ac(a2-3)Gal(b1-4)GlcNAc(b1-2)[Neu5Ac(a2-3)Gal(b1-4)GlcNAc(b1-4)]Man(a1-3)[GlcNAc(b1-4)][Neu5Ac(a2-3)Gal(b1-4)GlcNAc(b1-2)[Neu5Ac(a2-3)Gal(b1-4)GlcNAc(b1-6)]Man(a1-6)]Man(b1-4)GlcNAc(b1-4)GlcNAc
Summary of the method: as §1

[25] = target: Neu5Ac(a2-3)Gal(b1-4)GlcNAc(b1-2)[Neu5Ac(a2-3)Gal(b1-4)GlcNAc(b1-4)]Man(a1-3)[GlcNAc(b1-4)][Neu5Ac(a2-3)Gal(b1-4)GlcNAc(b1-4)Man(a1-6)]Man(b1-4)GlcNAc(b1-4)GlcNAc
Summary of the method: as §1

[26] = target: Neu5Ac(a2-3)Gal(b1-4)GlcNAc(b1-2)[Neu5Ac(a2-3)Gal(b1-4)GlcNAc(b1-6)]Man(a1-6)[Neu5Ac(a2-3)Gal(b1-4)GlcNAc(b1-2)Man(a1-3)][GlcNAc(b1-4)]Man(b1-4)GlcNAc(b1-4)GlcNAc
Summary of the method: as §1

[27] = target: Neu5Ac(a2-3)Gal(b1-4)GlcNAc(b1-3)Gal
Summary of the method: as §1

[28] = target: Neu5Ac(a2-3)Gal(b1-4)GlcNAc(b1-3)Gal(b1-3)GlcNAc
Summary of the method: as §1

[29] = target: Neu5Ac(a2-3)Gal(b1-4)GlcNAc(b1-3)Gal(b1-4)GlcNAc
Summary of the method: as §1

[30] = target: Neu5Ac(a2-3)Gal(b1-4)GlcNAc(b1-3)Gal(b1-4)GlcNAc(b1-2)Man(a1-3)[Neu5Ac(a2-3)Gal(b1-4)GlcNAc(b1-3)Gal(b1-4)GlcNAc(b1-2)Man(a1-6)]Man(b1-4)GlcNAc(b1-4)GlcNAc
Summary of the method: as §1

[31] = target: Neu5Ac(a2-3)Gal(b1-4)GlcNAc(b1-3)Gal(b1-4)GlcNAc(b1-3)Gal(b1-4)GlcNAc
Summary of the method: as §1

[32] = target: Neu5Ac(a2-3)Gal(b1-4)GlcNAc(b1-3)Gal(b1-4)GlcNAc(b1-3)Gal(b1-4)GlcNAc(b1-2)Man(a1-3)[Neu5Ac(a2-3)Gal(b1-4)GlcNAc(b1-3)Gal(b1-4)GlcNAc(b1-3)Gal(b1-4)GlcNAc(b1-2)Man(a1-6)]GalNAc
Summary of the method: as §1

[33] = target: Neu5Ac(a2-3)Gal(b1-4)GlcNAc(b1-3)Gal(b1-4)GlcNAc(b1-3)GalNAc
Summary of the method: as §1

[34] = target: Neu5Ac(a2-3)Gal(b1-4)GlcNAc(b1-3)Gal(b1-4)GlcNAc(b1-3)[Neu5Ac(a2-3)Gal(b1-4)GlcNAc(b1-3)Gal(b1-4)GlcNAc(b1-6)]GalNAc
Summary of the method: as §1

[35] = target: Neu5Ac(a2-3)Gal(b1-4)GlcNAc(b1-3)Gal(b1-4)GlcNAc(b1-6)[Gal(b1-3)]GalNAc
Summary of the method: as §1

[36] = target: Neu5Ac(a2-3)Gal(b1-4)GlcNAc(b1-3)Gal(b1-4)[Fuc(a1-3)]GlcNAc
Summary of the method: as §1

[37] = target: Neu5Ac(a2-3)Gal(b1-4)GlcNAc(b1-3)GalNAc
Summary of the method: as §1

[38] = target: Neu5Ac(a2-3)Gal(b1-4)GlcNAc(b1-3)[Neu5Ac(a2-3)Gal(b1-4)GlcNAc(b1-6)]GalNAc
Summary of the method: as §1

B1: B936 (Bifidobacterium sp) (protein)
chain: MKNWKKAIALVASAAALVSVAACGPSNAGGSSDSGKKTVGFVAVGPEGGFRTANEKDIQKAFEDAGFDLTYSPTQNNDQQKQIQAFNKFVNDEVDAIILSSTEDSGWDDSLKKAAEAEIPVFTVDRNVDVKDAEAKKAIVAHIGPSNVWCGEQAAEFVNKNFPDGANGFILEGPAGLSVVKDRGTGWGNKVASNVKVLESQSANWSTDEAKTVTAGLLDKYKSDNPQFIFAQNDEMGLGAAQAVDAAGLKGKVKIITIDGTKNALQALVDGDLSYVIEYNPIFGKETAQAVKDYLDGKTVEKDIEIESKTFDAASAKEALDNNTRAY
[1]
  glycan array binding signal (z-score): 0.307
[2]
  glycan array binding signal (z-score): 0.078
[3]
  glycan array binding signal (z-score): 0.001
[4]
  glycan array binding signal (z-score): 0.786
[5]
  glycan array binding signal (z-score): -0.504
[6]
  glycan array binding signal (z-score): -0.335
[7]
  glycan array binding signal (z-score): 0.225
[8]
  glycan array binding signal (z-score): 0.636
[9]
  glycan array binding signal (z-score): -0.818
[10]
  glycan array binding signal (z-score): -0.033
[11]
  glycan array binding signal (z-score): -0.339
[12]
  glycan array binding signal (z-score): 0.193
[13]
  glycan array binding signal (z-score): -0.81
[14]
  glycan array binding signal (z-score): -0.159
[15]
  glycan array binding signal (z-score): 0.012
[16]
  glycan array binding signal (z-score): -0.582
[17]
  glycan array binding signal (z-score): 0.008
[18]
  glycan array binding signal (z-score): -0.225
[19]
  glycan array binding signal (z-score): 1.06
[20]
  glycan array binding signal (z-score): -0.08
[21]
  glycan array binding signal (z-score): -0.422
[22]
  glycan array binding signal (z-score): -0.006
[23]
  glycan array binding signal (z-score): -0.04
[24]
  glycan array binding signal (z-score): -0.471
[25]
  glycan array binding signal (z-score): 0.275
[26]
  glycan array binding signal (z-score): -0.34
[27]
  glycan array binding signal (z-score): -0.629
[28]
  glycan array binding signal (z-score): 0.313
[29]
  glycan array binding signal (z-score): -0.527
[30]
  glycan array binding signal (z-score): -0.277
[31]
  glycan array binding signal (z-score): 1.16
[32]
  glycan array binding signal (z-score): -0.135
[33]
  glycan array binding signal (z-score): -0.804
[34]
  glycan array binding signal (z-score): 0.022
[35]
  glycan array binding signal (z-score): 0.889
[36]
  glycan array binding signal (z-score): -1.55
[37]
  glycan array binding signal (z-score): 0.531
[38]
  glycan array binding signal (z-score): -0.045
